Reference: US20060168698A1
These are yes or no findings as the source states them, for the method shown. Binding seen in cells or lysates may run through a third protein. Some entries that bind do so weakly or less than the wild type.

The chains behind the UniProt entries cited, without tags or fusion partners. Where a name states a change or a piece, a line headed by the entry shows the natural chain unless it says otherwise.
UniProt O81223: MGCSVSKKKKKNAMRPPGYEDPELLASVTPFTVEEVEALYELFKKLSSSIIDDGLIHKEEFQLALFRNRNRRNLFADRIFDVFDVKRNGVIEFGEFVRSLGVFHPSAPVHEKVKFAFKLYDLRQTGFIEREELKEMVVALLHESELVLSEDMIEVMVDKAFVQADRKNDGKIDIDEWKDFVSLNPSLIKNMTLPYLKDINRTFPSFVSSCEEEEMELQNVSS

What was measured:
[1] = biological target: GST-SOS3 fusion protein (Arabidopsis thaliana) (UniProt O81223); test: GST-SOS3 pull-down from wild-type and WT/T/DSOS2 transgenic plant extracts, anti-SOS2 immunoblot
[2] = biological target: GST-SOS3 fusion protein (Arabidopsis thaliana) (UniProt O81223); test: GST-SOS3 pull-down on glutathione-Sepharose beads from plant extracts, anti-SOS2 immunoblot
[3] = biological target: GST-SOS3 fusion protein (Arabidopsis thaliana) (UniProt O81223); test: GST-SOS3 pull-down from sos2-2 and sos3-1 mutant and transgenic plant extracts, anti-SOS2 immunoblot

Measured: binding

B1: T/DSOS2 (SOS2 protein kinase with the Thr168-to-Asp change in the activation loop) (enzyme)
chain: MTKKMRRVGKYEVGRTIGEGTFAKVKFARNTDTGDNVAIKIMAKSTILKNRMVDQIKREISIMKIVRHPNIVRLYEVLASPSKIYIVLEFVTGGELFDRIVHKGRLEESESRKYFQQLVDAVAHCHCKGVYHRDLKPENLLLDTNGNLKVSDFGLSALPQEGVELLRDTCGTPNYVAPEVLSGQGYDGSAADIWSCGVILFVILAGYLPFSETDLPGLYRKINAAEFSCPPWFSAEVKFLIHRILDPNPKTRIQIQGIKKDPWFRLNYVPIRAREEEEVNLDDIRAVFDGIEGSYVAENVERNDEGPLMMNAFEMITLSQGLNLSALFDRRQDFVKRQTRFVSRREPSEIIANIEAVANSMGFKSHTRNFKTRLEGLSSIKAGQLAVVIEIYEVAPSLFMVDVRKAAGETLEYHKFYKKLCSKLENIIWRATEGIPKSEILRTITF
binds: all assays above

B2: SOS2 (native, wild-type SOS2 protein kinase) (enzyme)
chain: MTKKMRRVGKYEVGRTIGEGTFAKVKFARNTDTGDNVAIKIMAKSTILKNRMVDQIKREISIMKIVRHPNIVRLYEVLASPSKIYIVLEFVTGGELFDRIVHKGRLEESESRKYFQQLVDAVAHCHCKGVYHRDLKPENLLLDTNGNLKVSDFGLSALPQEGVELLRTTCGTPNYVAPEVLSGQGYDGSAADIWSCGVILFVILAGYLPFSETDLPGLYRKINAAEFSCPPWFSAEVKFLIHRILDPNPKTRIQIQGIKKDPWFRLNYVPIRAREEEEVNLDDIRAVFDGIEGSYVAENVERNDEGPLMMNAFEMITLSQGLNLSALFDRRQDFVKRQTRFVSRREPSEIIANIEAVANSMGFKSHTRNFKTRLEGLSSIKAGQLAVVIEIYEVAPSLFMVDVRKAAGETLEYHKFYKKLCSKLENIIWRATEGIPKSEILRTITF
binds: all assays above
